Source: paper PMC9489763
Results are given in words; binding and its absence hold for the method and conditions named. Some entries that bind do so weakly or less than the wild type.

Molecular target: T1, GPR110 transmembrane domain (the CTF 567-873 after the stalk peptide 567-576), with LgBiT at its C-terminus (human) (UniProt Q5T601)
T1 sequence: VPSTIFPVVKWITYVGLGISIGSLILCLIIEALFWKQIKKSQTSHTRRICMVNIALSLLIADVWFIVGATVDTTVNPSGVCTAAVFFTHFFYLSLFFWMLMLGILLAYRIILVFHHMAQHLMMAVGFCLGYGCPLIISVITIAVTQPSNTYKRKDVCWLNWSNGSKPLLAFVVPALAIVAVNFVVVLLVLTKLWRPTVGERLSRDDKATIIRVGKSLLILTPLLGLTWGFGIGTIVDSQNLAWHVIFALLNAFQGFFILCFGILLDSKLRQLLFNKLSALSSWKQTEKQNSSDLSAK
Experiment: cryo-EM structure; GPR110 CTF-LgBiT, Gα, Gβ1-HiBiT and Gγ2 co-expressed in Sf9 (NanoBiT tethering); Nb35 added for mini-Gs and mini-Gq, scFv16 for Gi, G12 and G13; complex purified on amylose, cut with TEV, Superdex 200 in 20 mM Hepes pH 7.5, 150 mM NaCl, LMNG/GDN/CHS; about 10 mg/ml on grids; single particle …

binding: binds
B1: stalk peptide of GPR110 (…, 567-576) (peptide)
peptide: TSFSILMSPN
